In the supplement of paper PMC7646827:
Structures can show the parent of a compound that is named as a salt. Single values are uncertain, as repeats are few or missing.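 All cells are established human bladder cancer lines, one of them grown from a patient-derived xenograft. Viability was read by a luminescent ATP assay as percent inhibition versus vehicle over a seven-point dilution series; the paper calls scores above 59 very active, 30–59 active, 21–29 semi-active, 9–20 low active and below 9 inactive.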

Experiments:
Experiment in all cases: drug sensitivity score DSS3 (score 0-100); higher = more sensitive; extreme values may be limits of the assay
Details in all cases: culture: 3D, ultra-low attachment; treatment time: 5 days
UM-UC-12 = tested on: UM-UC-12
UM-UC-15 = tested on: UM-UC-15
5637 = tested on: 5637
SCaBER = tested on: SCaBER
UM-UC-14 = tested on: UM-UC-14
UM-UC-5 = tested on: UM-UC-5
UM-UC-17 = tested on: UM-UC-17
BC8149 = tested on: BC8149
UM-UC-6 = tested on: UM-UC-6
J82 = tested on: J82
UM-UC-18 = tested on: UM-UC-18
UM-UC-1 = tested on: UM-UC-1
SW780 = tested on: SW780
TCCSUP = tested on: TCCSUP
UM-UC-3 = tested on: UM-UC-3
UM-UC-9 = tested on: UM-UC-9
T-24 = tested on: T-24

Row | Structure (SMILES) | drug sensitivity score DSS3 (UM-UC-12) | drug sensitivity score DSS3 (UM-UC-15) | drug sensitivity score DSS3 5637 | drug sensitivity score DSS3 (SCaBER) | drug sensitivity score DSS3 (UM-UC-14) | drug sensitivity score DSS3 (UM-UC-5) | drug sensitivity score DSS3 (UM-UC-17) | drug sensitivity score DSS3 (BC8149) | drug sensitivity score DSS3 (UM-UC-6) | drug sensitivity score DSS3 (J82) | drug sensitivity score DSS3 (UM-UC-18) | drug sensitivity score DSS3 (UM-UC-1) | drug sensitivity score DSS3 (SW780) | drug sensitivity score DSS3 (TCCSUP) | drug sensitivity score DSS3 (UM-UC-3) | drug sensitivity score DSS3 (UM-UC-9) | drug sensitivity score DSS3 (T-24)
1 | O=C(c1cccc(Cl)c1F)N1CCN(Cc2cccc(Nc3nccs3)n2)CC1 [MK-8745] (max dose 10000 nM) | 0.89 | 10.4 | 5.01 | 0 | 2.04 | 0 | 0.72 | 3.46 | 5.61 | 0.184 | 0 | 5.9 | 0.0333 | 9.13 | 0 | 0 | –
2 | N#CC[C@H](C1CCCC1)n1cc(-c2ncnc3[nH]ccc23)cn1 (max dose 10000 nM) | 0 | 0 | 12.2 | 0 | 1.01 | 2.7 | 3.13 | 4.01 | 0.0588 | 0 | 0.0297 | 0.105 | 0.117 | 8.52 | 1.54 | 1.29 | –
3 | NC1(c2ccc(-c3nc4ccn5c(=O)[nH]nc5c4cc3-c3ccccc3)cc2)CCC1 [MK-2206 2HCl, MK2206] (max dose 10000 nM) | 0 | 0 | 7.74 | 3.18 | 2.66 | 8.52 | 0 | 8.26 | 1.21 | 0.0183 | 7.61 | 1.92 | 0.00459 | 14 | 1.12 | 0.529 | –
4 | O=C(N/N=C/c1ccc(O)c(O)c1)c1cc2ccccc2cc1O [Dynasore] (max dose 10000 nM) | 0 | 9.7 | 1.23 | 0 | 0 | 0 | 0.234 | 0 | 0.841 | 0 | 0.127 | 0 | 0 | 0.447 | 0 | 0.268 | –
5 | CC(C)n1nc(-c2ccc3oc(N)nc3c2)c2c(N)ncnc21 [INK 128 (MLN0128), TAK228] (max dose 10000 nM) | 42.4 | – | 41.7 | 48 | 45.2 | 51.9 | 32.2 | 61.6 | 46.7 | 0 | 46.4 | 53.1 | 30.9 | 60.1 | 41.6 | 41.1 | –
6 | CC(C)(C)c1[nH]cnc1/C=c1\[nH]c(=O)/c(=C/c2ccccc2)[nH]c1=O [Plinabulin (NPI-2358)] (max dose 10000 nM) | 20.9 | 0 | 36.8 | 0.0273 | 29.2 | 6.25 | 47.3 | 13 | 28.8 | 0.017 | 0 | 21.3 | 20.5 | 52.4 | 13.8 | 11 | –
7 | CN1CCN(c2ccc3nc(-c4c(N)c5c(F)cccc5[nH]c4=O)[nH]c3c2)CC1 [Dovitinib (TKI-258, CHIR-258)] (max dose 10000 nM) | 7.28 | 0 | 3.88 | 5.21 | 1.75 | 0 | 1.62 | 1.02 | 0.0317 | 0.956 | 0.742 | 0.549 | 0 | 9.34 | 0 | 0 | –
8 | FC(F)c1nc2ccccc2n1-c1nc(N2CCOCC2)nc(N2CCOCC2)n1 [ZSTK474] (max dose 10000 nM) | 4.26 | 0 | 3.14 | 2.81 | 0.593 | 13.1 | 0 | 28.6 | 1.44 | 1.05 | 0 | 0 | 0 | 10.6 | 10.2 | 0 | –
9 | Cc1cc(C)nc(NC(=S)N2CCN(Cc3ccc(C(F)(F)F)cc3)CC2)c1 [NCT-503] (max dose 10000 nM) | 0 | 35.7 | 0 | 0 | 0 | 0 | 0 | 0 | 0.000902 | 0 | 0.157 | 0 | 0 | 0 | 0 | 0.142 | –
10 | Nc1ccn([C@@H]2O[C@H](CO)[C@@H](O)C2(F)F)c(=O)n1 [Gemcitabine] (max dose 10000 nM) | 52.9 | 2 | 63 | 10.2 | 66.3 | – | 35 | 57.8 | 50.3 | 30.3 | 46.6 | 74 | 33.5 | 76.9 | 47.2 | 28.4 | –
11 | Cc1sc2c(c1C)C(c1ccc(Cl)cc1)=N[C@@H](CC(=O)OC(C)(C)C)c1nnc(C)n1-2 [(+)-JQ1] (max dose 10000 nM) | 29.5 | 0 | 5.43 | 0 | 17.5 | 10.9 | 13.2 | – | 14.7 | 0 | 0 | – | 0 | 18.4 | 0 | 32.6 | –
12 | CC[C@]1(O)C[C@@H]2CN(CCc3c([nH]c4ccccc34)[C@@](C(=O)OC)(c3cc4c(cc3OC)N(C)[C@H]3[C@@](O)(C(=O)OC)[C@H](OC(C)=O)[C@]5(CC)C=CCN6CC[C@]43[C@@H]65)C2)C1 [Vinblastine sulfate] (max dose 10000 nM) | 24.9 | 0.00681 | 54.6 | 27.8 | 54.5 | 29.8 | 48.4 | 37.1 | 39.3 | 26.3 | 27.5 | 54.1 | 36 | 63.8 | 39.5 | 31.6 | –
13 | Nc1nc(F)nc2c1ncn2[C@@H]1O[C@H](CO)[C@@H](O)[C@@H]1O [Fludarabine] (max dose 10000 nM) | 1.07 | 0 | 6.63 | 0 | 8.95 | 0 | 5.29 | 1.61 | 8.8 | 0 | 19 | 3.32 | 0 | 10.5 | 0 | 0.277 | –
14 | CO[C@H]1CC[C@H](N2C(=O)CNc3ncc(-c4ccc(C(C)(C)O)nc4)nc32)CC1 [CC-223] (max dose 10000 nM) | 3.33 | 0.279 | 4.16 | 4.41 | 2.45 | 0.88 | 0 | 7.62 | 1.8 | 1.5 | 1.47 | 1.95 | 1.55 | 7.59 | 0.612 | 2.24 | –
15 | Oc1nc(-c2ccc(C(F)(F)F)cc2)nc2c1CSCC2 [XAV-939] (max dose 10000 nM) | 2.88 | – | 30 | – | 20.5 | – | 2.32 | 11.6 | – | – | 20.1 | 4.05 | – | 10.7 | 0 | – | –
16 | C=C1C[C@@H]2CC[C@@]34C[C@H]5O[C@H]6[C@@H](O3)[C@H]3O[C@H](CC[C@@H]3O[C@H]6[C@H]5O4)CC(=O)C[C@@H]3[C@@H](OC)[C@@H](C[C@H](O)CN)O[C@H]3C[C@H]3O[C@@H](CC[C@@H]1O2)C[C@@H](C)C3=C [Eribulin Mesylate] (max dose 10000 nM) | 51.8 | 0 | 61 | 0 | 74.3 | – | 78.4 | 21.4 | 56.7 | 0 | 0 | 33.8 | 75.2 | 65.3 | 47.3 | 15.9 | –
17 | C/C(=N\NC(=O)c1cccc(S(=O)(=O)N2CCOCC2)c1)c1cc(Cl)ccc1O [SP2509] (max dose 10000 nM) | 0 | 0 | 0 | 0 | – | 0 | 0.383 | 0.0794 | 0 | 0 | 0 | 0 | 0 | 1.14 | 0.332 | 0.00194 | –
18 | COc1cc2ncnc(Nc3ccc(O)cc3)c2cc1OC [JANEX-1] (max dose 10000 nM) | 0 | 16.6 | 0.549 | 0 | 0 | 0 | 0 | – | 0 | 0 | 0 | – | 0 | 0.295 | 0.354 | 0 | –
19 | CN(C)C/C=C/C(=O)Nc1cc2c(Nc3ccc(F)c(Cl)c3)ncnc2cc1O[C@H]1CCOC1 [Afatinib, Afatinib (BIBW2992)] (max dose 10000 nM) | 40.5 | 0 | 22.8 | 27 | 0.717 | 0 | 0 | 2.05 | 6.27 | 0.57 | 11.7 | 0 | 0 | 4.14 | – | 0 | 16.6
20 | CN(C)C(=O)c1cc2cnc(Nc3ccc(N4CCNCC4)cn3)nc2n1C1CCCC1 [Ribociclib] (max dose 10000 nM) | 0 | 0 | 0 | 0 | 0.316 | 0 | 0.734 | 0 | 0 | 0 | 0.0398 | 0 | 0 | 2.19 | – | 0 | 0
21 | O=C(Oc1ccc([N+](=O)[O-])cc1)N1CCC(C(O)(c2ccc3c(c2)OCO3)c2ccc3c(c2)OCO3)CC1 [JZL184] (max dose 10000 nM) | 0 | 0 | 0 | 0 | 0 | 0 | 0 | 0 | 0 | 0 | 0 | 0 | 0 | 0 | – | 0 | 0
22 | CC1CNc2c(cccc2S(=O)(=O)N[C@@H](CCCNC(=N)N)C(=O)N2CC[C@@H](C)C[C@@H]2C(=O)O)C1 (stereo not given in full) [Argatroban Monohydrate] (max dose 10000 nM) | 0 | 0 | 3.15 | 0.996 | 3.81 | 0 | 0.673 | 1.16 | 6.78 | 0.601 | 8.16 | 1.88 | 0.251 | 2.42 | – | 0 | 0.0835
23 | NC(=O)c1cccc(-c2cccc(OC(=O)NC3CCCCC3)c2)c1 [URB597] (max dose 10000 nM) | 0.314 | 0 | 0.802 | 1.38 | 0 | 0 | 0 | 0.548 | 0 | 0 | 0.996 | 0 | 0 | 0.99 | – | 0.0199 | 0.0854
24 | Nc1cc(F)ccc1NC(=O)/C=C/c1cnn(C/C=C/c2ccccc2)c1 [RGFP966] (max dose 10000 nM) | 0 | 0 | 0 | 0 | 0 | 0 | 0 | 0 | 0 | 0 | 0.138 | 0 | 0 | 0.00824 | – | 0 | 0
25 | Cc1cc(F)c(Nc2ncnc3cc(OCc4ccccc4)ccc23)cc1O (max dose 10000 nM) | 0 | 0 | 0 | 0 | 0.0263 | 0 | 0 | 0 | 0 | 0 | 0 | 0.000172 | 1.12 | 0 | – | 0 | 0.292

Retrieved by structure from above (2):
Row | Structure (SMILES) | drug sensitivity score DSS3 (UM-UC-12) | drug sensitivity score DSS3 (UM-UC-15) | drug sensitivity score DSS3 5637 | drug sensitivity score DSS3 (SCaBER) | drug sensitivity score DSS3 (UM-UC-14) | drug sensitivity score DSS3 (UM-UC-5) | drug sensitivity score DSS3 (UM-UC-17) | drug sensitivity score DSS3 (BC8149) | drug sensitivity score DSS3 (UM-UC-6) | drug sensitivity score DSS3 (J82) | drug sensitivity score DSS3 (UM-UC-18) | drug sensitivity score DSS3 (UM-UC-1) | drug sensitivity score DSS3 (SW780) | drug sensitivity score DSS3 (TCCSUP) | drug sensitivity score DSS3 (UM-UC-3) | drug sensitivity score DSS3 (UM-UC-9) | drug sensitivity score DSS3 (T-24)
14 | CO[C@H]1CC[C@H](N2C(=O)CNc3ncc(-c4ccc(C(C)(C)O)nc4)nc32)CC1 [CC-223] (max dose 10000 nM) | 3.33 | 0.279 | 4.16 | 4.41 | 2.45 | 0.88 | 0 | 7.62 | 1.8 | 1.5 | 1.47 | 1.95 | 1.55 | 7.59 | 0.612 | 2.24 | –
10 | Nc1ccn([C@@H]2O[C@H](CO)[C@@H](O)C2(F)F)c(=O)n1 [Gemcitabine] (max dose 10000 nM) | 52.9 | 2 | 63 | 10.2 | 66.3 | – | 35 | 57.8 | 50.3 | 30.3 | 46.6 | 74 | 33.5 | 76.9 | 47.2 | 28.4 | –
